{"source": "PubChem BioAssay AID1159578 (Peter MacCallum Cancer Centre, 2015)", "screen": "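Knock-downs that alter how fast lymphatic endothelial cells migrate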 (primary screen)", "cells": "human lymphatic endothelial cells", "reagents": "siRNA pool against human genes, 40 nM", "duration": "48 h after transfection", "detection": "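High-content imaging of dye-stained cells in a scratch assay measures filled wound area and nuclei per well; duplicate means given as ratio to mock and robust z-score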", "reading the numbers": "migration robust z-score: higher = faster migration into the scratch; nuclei per well: higher = more cells in the well", "active means": "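Migration changed when robust z exceeds 2 or falls below -2 and mean nuclei number is at least 3300; otherwise not called changed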", "calls": "active = migration changed; inactive = no migration change, or too few cells", "note": "Here is one part, drawn at random, of about 18,000 reagents tested. Of all reagents, about 1,030 (5.7%) were called active. 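Inactive calls also include pools with fewer than 3300 nuclei, whose migration was not assessed.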 Raw values vary from plate to plate and are shown uncorrected. Not all columns of the deposit are shown."}
{"target gene": "CETN1", "migration robust z-score": -1.22, "nuclei per well, duplicate mean": 3873, "call": "inactive"}
{"target gene": "CACNG4", "migration robust z-score": 0.42, "nuclei per well, duplicate mean": 4786, "call": "inactive"}
{"target gene": "FAM217A", "migration robust z-score": -0.87, "nuclei per well, duplicate mean": 5139, "call": "inactive"}
{"target gene": "IL12RB1", "migration robust z-score": -0.46, "nuclei per well, duplicate mean": 3963, "call": "inactive"}
{"target gene": "CTU1", "migration robust z-score": 0.47, "nuclei per well, duplicate mean": 5724, "call": "inactive"}
{"target gene": "ASXL2", "migration robust z-score": 1.37, "nuclei per well, duplicate mean": 6255, "call": "inactive"}
{"target gene": "ADAM30", "migration robust z-score": -1.06, "nuclei per well, duplicate mean": 5539, "call": "inactive"}
{"target gene": "GANC", "migration robust z-score": 0.18, "nuclei per well, duplicate mean": 5666, "call": "inactive"}
{"target gene": "FAM218A", "migration robust z-score": 0.26, "nuclei per well, duplicate mean": 5346, "call": "inactive"}
{"target gene": "SYCP2", "migration robust z-score": 1.15, "nuclei per well, duplicate mean": 5954, "call": "inactive"}
{"target gene": "CELF5", "migration robust z-score": -1.52, "nuclei per well, duplicate mean": 5068, "call": "inactive"}
{"target gene": "RANBP17", "migration robust z-score": 0.31, "nuclei per well, duplicate mean": 6195, "call": "inactive"}
{"target gene": "PGAP1", "migration robust z-score": -2.57, "nuclei per well, duplicate mean": 3901, "call": "active"}
{"target gene": "TARS2", "migration robust z-score": -0.38, "nuclei per well, duplicate mean": 5536, "call": "inactive"}
{"target gene": "SLC16A2", "migration robust z-score": -0.08, "nuclei per well, duplicate mean": 5560, "call": "inactive"}
{"target gene": "OXA1L", "migration robust z-score": 0.5, "nuclei per well, duplicate mean": 5563, "call": "inactive"}
{"target gene": "NSFL1C", "migration robust z-score": 1.39, "nuclei per well, duplicate mean": 5850, "call": "inactive"}
{"target gene": "C1QL3", "migration robust z-score": 1.05, "nuclei per well, duplicate mean": 6214, "call": "inactive"}
{"target gene": "PDS5B", "migration robust z-score": -0.13, "nuclei per well, duplicate mean": 5796, "call": "inactive"}
{"target gene": "APOOL", "migration robust z-score": -0.58, "nuclei per well, duplicate mean": 5016, "call": "inactive"}
{"target gene": "CYBB", "migration robust z-score": -0.42, "nuclei per well, duplicate mean": 4268, "call": "inactive"}

An excerpt from above, reduced to “migration robust z-score”:
PDS5B	-0.13
APOOL	-0.58
CYBB	-0.42
